These are yes or no findings as the source states them, for the method shown. For some assays here: Binding seen in cells or lysates may run through a third protein. Some entries that bind do so weakly or less than the wild type. Sequences can lack the tags named with a protein.
Legend:
[1] = biological target: T1, Armadillo BTB Arabidopsis protein 1 (ABAP1), GST fusion (Arabidopsis thaliana) (UniProt B7U179); assay: pull-down; GST pull-down; ABAP1-GST or GST alone as bait, HIS-tagged protein as prey, both produced in E. coli; Western blot with anti-HIS antibody
T1 sequence: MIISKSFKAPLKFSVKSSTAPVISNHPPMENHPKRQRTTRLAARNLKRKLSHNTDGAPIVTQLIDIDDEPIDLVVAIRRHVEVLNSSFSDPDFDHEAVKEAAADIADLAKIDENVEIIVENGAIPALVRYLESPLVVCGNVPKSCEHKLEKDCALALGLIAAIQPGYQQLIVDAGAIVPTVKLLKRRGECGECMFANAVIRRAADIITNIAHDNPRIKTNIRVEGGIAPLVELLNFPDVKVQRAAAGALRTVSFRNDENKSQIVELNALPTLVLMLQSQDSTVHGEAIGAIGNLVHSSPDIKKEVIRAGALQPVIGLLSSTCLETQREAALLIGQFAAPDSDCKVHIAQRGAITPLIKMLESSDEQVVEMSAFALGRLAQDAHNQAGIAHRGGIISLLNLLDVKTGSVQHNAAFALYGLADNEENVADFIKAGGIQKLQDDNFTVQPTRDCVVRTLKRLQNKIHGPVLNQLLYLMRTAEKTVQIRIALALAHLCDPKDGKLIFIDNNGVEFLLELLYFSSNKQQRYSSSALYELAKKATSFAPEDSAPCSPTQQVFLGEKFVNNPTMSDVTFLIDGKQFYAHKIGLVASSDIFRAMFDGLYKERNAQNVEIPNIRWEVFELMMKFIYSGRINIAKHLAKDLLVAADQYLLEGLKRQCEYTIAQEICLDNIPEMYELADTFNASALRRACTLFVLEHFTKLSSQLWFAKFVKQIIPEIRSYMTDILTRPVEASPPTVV

Protein sequences, listed by entry. Tags and fused reporters are not part of them.
UniProt Q94AN4: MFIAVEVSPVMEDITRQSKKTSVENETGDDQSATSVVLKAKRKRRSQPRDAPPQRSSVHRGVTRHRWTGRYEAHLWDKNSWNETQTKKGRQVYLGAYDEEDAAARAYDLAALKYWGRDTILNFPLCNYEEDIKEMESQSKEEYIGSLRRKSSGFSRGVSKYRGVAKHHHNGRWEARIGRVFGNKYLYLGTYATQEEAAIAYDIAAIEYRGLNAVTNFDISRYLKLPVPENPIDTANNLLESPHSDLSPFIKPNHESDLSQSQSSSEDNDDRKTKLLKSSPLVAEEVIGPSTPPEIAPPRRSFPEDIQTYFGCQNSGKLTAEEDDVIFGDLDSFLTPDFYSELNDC

[2] = biological target: T2, Armadillo BTB Arabidopsis protein 1 (ABAP1), yeast two-hybrid fusion (Arabidopsis thaliana) (UniProt B7U179); assay: two-hybrid; yeast; pairs cloned in both AD and DBD vectors; growth on SD medium lacking leucine, tryptophan, histidine and adenine (selection of strong interactions); empty vectors as negative controls
T2 sequence: T1 sequence

Question: How did the binding [1] turn out when “ARIA-interacting double AP2-domain protein (ADAP) / WRINKLED3 (WRI3), HIS fusion (from UniProt Q94AN4 1-345)” was run?
Answer: binds

Question: With “ARIA-interacting double AP2-domain protein (ADAP) / WRINKLED3 (WRI3), yeast two-hybrid fusion (from UniProt Q94AN4 1-345)” as the substance, how does the binding [2] read?
Answer: binds
